Assay [1] has as its system ReNCell VM. The assay is described as follows: neuronal differentiation score (DCX+ cell fraction vs untreated, manual image score) (score (-3 to 3)); higher = more neuronal differentiation. The settings on record: 2 uM, 2 weeks.
The test system of assay [2] is ReNCell VM. The assay is described as follows: dopaminergic neuron differentiation score (TH+ cell fraction vs untreated, manual image score) (score (0 to 3)); higher = more TH+ dopaminergic neuron differentiation. The settings on record: 2 uM, 4 weeks, BDNF 10 ng/ml + GDNF 10 ng/ml.

These results are taken from the supplement of paper PMC4635364.

Counter-ions that a name gives are not always drawn. The list shows a part of the results. Repeats in this data set agree poorly, so a single value says little.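 ReNCell VM, a human fetal ventral-midbrain neural progenitor line, was differentiated without mitogens. Blinded raters scored images stained for doublecortin (early neurons) or tyrosine hydroxylase (dopaminergic neurons) against untreated wells (0 = no change). Scores were averaged across repeats and both raters, and compounds averaging 2 or more were selected as hits for retesting.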

For the compound `CC1(C)CCC[C@](C)([C@H]2CC[C@]3(C)[C@@H]2[C@H](O)C[C@@H]2[C@@]4(C)CC[C@H](O)C(C)(C)[C@@H]4[C@@H](O)C[C@]23C)O1` [panaxatriol], the neuronal differentiation score with ReNCell VM [1] (library: Natural) was inactive: 1. In the assay on ReNCell VM [2] (library: Natural), the “dopaminergic neuron differentiation score” value is inactive: 0.
Take `CNCCC(Oc1ccc(C(F)(F)F)cc1)c1ccccc1` (stereo not drawn): in the assay on ReNCell VM [1] (library: Spectrum), the neuronal differentiation score was inactive: 0. The “dopaminergic neuron differentiation score” value in the assay on ReNCell VM [2] (library: Spectrum) is inactive: 0.
In the case of `COc1cc(OC)c2c(=O)c(-c3ccccc3)c(C)oc2c1OC`, the neuronal differentiation score with ReNCell VM [1] (library: Spectrum) is inactive: 0. Further, the “dopaminergic neuron differentiation score” value in the assay with ReNCell VM [2] (library: Spectrum) is inactive: 0.
In the case of `C=CCSCC1Nc2cc(Cl)c(S(N)(=O)=O)cc2S(=O)(=O)N1` (stereo not drawn) [Althiazide], in the assay on ReNCell VM [1] (library: Prestwick), the neuronal differentiation score was inactive: 0. The “dopaminergic neuron differentiation score” value with ReNCell VM [2] (library: Prestwick) was inactive: 0.
Regarding `CCCCS(=N)(=O)CCC(N)C(=O)O` [L-Buthionine-sulfoximine], in the assay with ReNCell VM [1] (library: LOPAC), the neuronal differentiation score was inactive: 0. Further, in the assay on ReNCell VM [2] (library: LOPAC), the “dopaminergic neuron differentiation score” value was inactive: 0.
Turning to `Cc1cc2c(cc1S(N)(=O)=O)S(=O)(=O)CCC2` [Meticrane], in the assay with ReNCell VM [1] (library: Prestwick), the neuronal differentiation score is inactive: 0. Further, the “dopaminergic neuron differentiation score” value in the assay on ReNCell VM [2] (library: Prestwick) was inactive: 0.
Consider `C[C@H]1[C@H](C)CC[C@]2(C(=O)O)CC[C@]3(C)C(=CC[C@@H]4[C@@]5(C)C[C@@H](O)[C@H](O)[C@@](C)(CO)[C@@H]5CC[C@]43C)[C@H]12`, for which the neuronal differentiation score in the assay on ReNCell VM [1] (library: Spectrum) was inactive: 0. Besides, the “dopaminergic neuron differentiation score” value in the assay with ReNCell VM [2] (library: Spectrum) was inactive: 0.
For `CC(=O)Oc1ccc(C(c2ccc(OC(C)=O)cc2)c2ccccn2)cc1` [Bisacodyl], in the assay on ReNCell VM [1] (library: Prestwick), the neuronal differentiation score is inactive: 0. Besides, the “dopaminergic neuron differentiation score” value in the assay with ReNCell VM [2] (library: Prestwick) is inactive: 0.
For `Cc1cc(=O)oc2cc(O)c(O)cc12`, the neuronal differentiation score in the assay on ReNCell VM [1] (library: Spectrum) was inactive: 0. Also, the “dopaminergic neuron differentiation score” value with ReNCell VM [2] (library: Spectrum) was inactive: 0.
`CC(=O)CC(c1ccccc1)c1c(O)c2ccccc2oc1=O` (stereo not drawn): the neuronal differentiation score with ReNCell VM [1] (library: Spectrum) is inactive: 0. Besides, in the assay with ReNCell VM [2] (library: Spectrum), the “dopaminergic neuron differentiation score” value is inactive: 0.
Regarding `CC(C)(C)NC[C@H](O)COc1nsnc1N1CCOCC1` [Timolol maleate salt], the neuronal differentiation score with ReNCell VM [1] (library: Prestwick) was inactive: 0. Besides, in the assay on ReNCell VM [2] (library: Prestwick), the “dopaminergic neuron differentiation score” value is inactive: 0.
With `O=C(CCCCCCC(=O)Nc1ccccc1)NO` [Vorinostat], the neuronal differentiation score with ReNCell VM [1] (library: Prestwick) is inactive: 0. For the same compound, in the assay with ReNCell VM [2] (library: Prestwick), the “dopaminergic neuron differentiation score” value was inactive: 0.
Turning to `Cc1ccc(Sc2cncc3sc(C(N)=O)cc23)cc1`, the neuronal differentiation score in the assay on ReNCell VM [1] (library: Tocriscreen) was inactive: 0. In the assay with ReNCell VM [2] (library: Tocriscreen), the “dopaminergic neuron differentiation score” value was inactive: 0.
On to `CCN(CC)CCOc1ccc(C(=C(Cl)c2ccccc2)c2ccccc2)cc1` [Clomiphene citrate (Z,E)], for which the neuronal differentiation score with ReNCell VM [1] (library: Prestwick) was inactive: 0. In the assay on ReNCell VM [2] (library: Prestwick), the “dopaminergic neuron differentiation score” value is inactive: 0.
Take `CC(C)(Oc1ccc(CCNC(=O)c2ccc(Cl)cc2)cc1)C(=O)O` [Bezafibrate]: in the assay with ReNCell VM [1] (library: Prestwick), the neuronal differentiation score was inactive: 0. The “dopaminergic neuron differentiation score” value in the assay on ReNCell VM [2] (library: Prestwick) is inactive: 0.
As to `COc1cc(/C=C/C(N)=O)cc(OC)c1OC`, the neuronal differentiation score in the assay on ReNCell VM [1] (library: Spectrum) was inactive: 0. In addition, the “dopaminergic neuron differentiation score” value in the assay on ReNCell VM [2] (library: Spectrum) is inactive: 0.
`O=C(O)C1CCCNC1` (stereo not drawn): in the assay with ReNCell VM [1] (library: Spectrum), the neuronal differentiation score was inactive: 0. Further, in the assay with ReNCell VM [2] (library: Spectrum), the “dopaminergic neuron differentiation score” value was inactive: 0.
Regarding `O=c1oc2c(O)c(O)cc3c(=O)oc4c(O)c(O)cc1c4c23` [Ellagic Acid], the neuronal differentiation score in the assay with ReNCell VM [1] (library: Phytochemical) is inactive: 0. The “dopaminergic neuron differentiation score” value in the assay on ReNCell VM [2] (library: Phytochemical) is inactive: 0.
For `O=S(=O)(c1ccccc1)N(CC(F)(F)F)c1ccc(C(O)(C(F)(F)F)C(F)(F)F)cc1`, the neuronal differentiation score with ReNCell VM [1] (library: Tocriscreen) was inactive: 0. The “dopaminergic neuron differentiation score” value in the assay with ReNCell VM [2] (library: Tocriscreen) was inactive: 0.
For `C[C@@H](c1ncncc1F)[C@](O)(Cn1cncn1)c1ccc(F)cc1F` [Voriconazole], the neuronal differentiation score in the assay on ReNCell VM [1] (library: Prestwick) is inactive: 0. Moreover, in the assay with ReNCell VM [2] (library: Prestwick), the “dopaminergic neuron differentiation score” value was inactive: 0.
Regarding `Cc1ccsc1/C=C/C1=NCCCN1C`, the neuronal differentiation score in the assay on ReNCell VM [1] (library: Spectrum) was inactive: 0. In addition, the “dopaminergic neuron differentiation score” value in the assay with ReNCell VM [2] (library: Spectrum) is inactive: 0.
On to `COc1ccc(NC(=O)c2ccc(-c3ccc(-c4noc(C)n4)cc3C)cc2)cc1OCCN(C)C`, for which, in the assay on ReNCell VM [1] (library: Tocriscreen), the neuronal differentiation score was inactive: 0. Moreover, the “dopaminergic neuron differentiation score” value with ReNCell VM [2] (library: Tocriscreen) is inactive: 0.
As for `Cc1c(C)c2c(c(C)c1O)CCC(C)(CCCC(C)CCCC(C)CCCC(C)C)O2` (stereo not drawn) [alpha-TOCHOPHEROL], the neuronal differentiation score in the assay with ReNCell VM [1] (library: Spectrum) is inactive: 0. The “dopaminergic neuron differentiation score” value with ReNCell VM [2] (library: Spectrum) is inactive: 0.
`CC1=Nc2ccc(Cl)cc2S(=O)(=O)N1`: the neuronal differentiation score in the assay with ReNCell VM [1] (library: Spectrum) was inactive: 0. In addition, in the assay with ReNCell VM [2] (library: Spectrum), the “dopaminergic neuron differentiation score” value is inactive: 0.
As for `CC(C)(C)NCC(O)COc1cccc2c1CCC(=O)N2` (stereo not drawn), in the assay on ReNCell VM [1] (library: Spectrum), the neuronal differentiation score was inactive: 0. Besides, the “dopaminergic neuron differentiation score” value in the assay on ReNCell VM [2] (library: Spectrum) was inactive: 0.
Turning to `CN(Cc1ccccc1)C(=O)[C@H](Cc1ccc2ccccc2c1)NC(=O)[C@@H]1CCCN1C(=O)Nc1ccccc1[N+](=O)[O-]`, the neuronal differentiation score in the assay on ReNCell VM [1] (library: Tocriscreen) is inactive: 0. Further, the “dopaminergic neuron differentiation score” value in the assay on ReNCell VM [2] (library: Tocriscreen) is inactive: 0.
`CN(C)CCN(Cc1cccs1)c1ccccn1`: in the assay with ReNCell VM [1] (library: Spectrum), the neuronal differentiation score was inactive: 0. Further, the “dopaminergic neuron differentiation score” value in the assay on ReNCell VM [2] (library: Spectrum) was inactive: 0.
On to `CC1NC(=O)OC1c1ccccc1` (stereo not drawn) [4-methyl-5-phenyl-2-oxazolidinone], for which the neuronal differentiation score in the assay on ReNCell VM [1] (library: Natural) was inactive: 0. Moreover, the “dopaminergic neuron differentiation score” value in the assay on ReNCell VM [2] (library: Natural) was inactive: 0.
Regarding `COC1=CC(=O)C[C@@H](C)[C@]12Oc1c(Cl)c(OC)cc(OC)c1C2=O` [Griseofulvin], the neuronal differentiation score in the assay on ReNCell VM [1] (library: Prestwick) was inactive: 0. Moreover, the “dopaminergic neuron differentiation score” value with ReNCell VM [2] (library: Prestwick) was inactive: 0.
For the compound `CC(=C(CCO)SSCC1CCCO1)N(C=O)Cc1cnc(C)nc1N` (stereo in doubt) [Fursultiamine Hydrochloride], the neuronal differentiation score with ReNCell VM [1] (library: Prestwick) was inactive: 0. Besides, the “dopaminergic neuron differentiation score” value in the assay on ReNCell VM [2] (library: Prestwick) is inactive: 0.
Regarding `CC(=O)c1c(O)cc(O)cc1O`, the neuronal differentiation score with ReNCell VM [1] (library: Spectrum) is inactive: 0. Besides, in the assay with ReNCell VM [2] (library: Spectrum), the “dopaminergic neuron differentiation score” value is inactive: 0.
Turning to `C=C[C@H]1CN2CC[C@H]1C[C@H]2[C@H](O)c1ccnc2ccc(OC)cc12`, in the assay on ReNCell VM [1] (library: Spectrum), the neuronal differentiation score was inactive: 0. Also, in the assay with ReNCell VM [2] (library: Spectrum), the “dopaminergic neuron differentiation score” value is inactive: 0.
In the case of `CCC(=O)Oc1ccc2c(c1)CC[C@@H]1[C@@H]2CC[C@]2(C)[C@@H](OC(=O)CC)CC[C@@H]12`, the neuronal differentiation score in the assay on ReNCell VM [1] (library: Spectrum) is inactive: 0. In addition, the “dopaminergic neuron differentiation score” value in the assay with ReNCell VM [2] (library: Spectrum) was inactive: 0.
Turning to `COc1cc(OC)c2c(=O)c(O)c(-c3ccc(OC)c(OC)c3)oc2c1`, the neuronal differentiation score in the assay on ReNCell VM [1] (library: Spectrum) was inactive: 0. Also, in the assay on ReNCell VM [2] (library: Spectrum), the “dopaminergic neuron differentiation score” value is inactive: 0.
